Results as given in the supplement of paper PMC7666118.
The other results are listed elsewhere or left out.

The chains behind the UniProt entries cited, without tags or fusion partners. Where a name states a change or a piece, a line headed by the entry shows the natural chain unless it says otherwise.
UniProt Q14694, whole entry: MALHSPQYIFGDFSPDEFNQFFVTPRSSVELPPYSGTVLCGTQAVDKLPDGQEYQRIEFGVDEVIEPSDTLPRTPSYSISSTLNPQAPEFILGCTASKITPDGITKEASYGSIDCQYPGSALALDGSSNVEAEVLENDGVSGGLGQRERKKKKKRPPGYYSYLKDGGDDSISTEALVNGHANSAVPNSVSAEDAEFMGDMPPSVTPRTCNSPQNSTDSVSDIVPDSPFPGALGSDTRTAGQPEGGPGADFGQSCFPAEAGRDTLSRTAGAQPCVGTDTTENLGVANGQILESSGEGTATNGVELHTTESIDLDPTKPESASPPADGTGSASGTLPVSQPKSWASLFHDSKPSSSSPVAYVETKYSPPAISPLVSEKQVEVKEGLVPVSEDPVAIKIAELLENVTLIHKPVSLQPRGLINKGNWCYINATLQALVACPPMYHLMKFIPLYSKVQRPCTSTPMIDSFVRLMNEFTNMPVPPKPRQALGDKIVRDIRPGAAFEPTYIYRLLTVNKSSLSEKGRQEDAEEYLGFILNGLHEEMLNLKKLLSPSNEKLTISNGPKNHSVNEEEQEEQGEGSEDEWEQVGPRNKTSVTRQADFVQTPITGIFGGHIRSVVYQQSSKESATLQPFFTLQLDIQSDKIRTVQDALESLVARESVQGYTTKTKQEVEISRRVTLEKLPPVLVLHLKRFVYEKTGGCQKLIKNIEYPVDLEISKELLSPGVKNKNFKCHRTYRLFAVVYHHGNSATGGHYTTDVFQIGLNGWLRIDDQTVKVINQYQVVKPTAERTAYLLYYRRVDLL
UniProt Q70CQ2: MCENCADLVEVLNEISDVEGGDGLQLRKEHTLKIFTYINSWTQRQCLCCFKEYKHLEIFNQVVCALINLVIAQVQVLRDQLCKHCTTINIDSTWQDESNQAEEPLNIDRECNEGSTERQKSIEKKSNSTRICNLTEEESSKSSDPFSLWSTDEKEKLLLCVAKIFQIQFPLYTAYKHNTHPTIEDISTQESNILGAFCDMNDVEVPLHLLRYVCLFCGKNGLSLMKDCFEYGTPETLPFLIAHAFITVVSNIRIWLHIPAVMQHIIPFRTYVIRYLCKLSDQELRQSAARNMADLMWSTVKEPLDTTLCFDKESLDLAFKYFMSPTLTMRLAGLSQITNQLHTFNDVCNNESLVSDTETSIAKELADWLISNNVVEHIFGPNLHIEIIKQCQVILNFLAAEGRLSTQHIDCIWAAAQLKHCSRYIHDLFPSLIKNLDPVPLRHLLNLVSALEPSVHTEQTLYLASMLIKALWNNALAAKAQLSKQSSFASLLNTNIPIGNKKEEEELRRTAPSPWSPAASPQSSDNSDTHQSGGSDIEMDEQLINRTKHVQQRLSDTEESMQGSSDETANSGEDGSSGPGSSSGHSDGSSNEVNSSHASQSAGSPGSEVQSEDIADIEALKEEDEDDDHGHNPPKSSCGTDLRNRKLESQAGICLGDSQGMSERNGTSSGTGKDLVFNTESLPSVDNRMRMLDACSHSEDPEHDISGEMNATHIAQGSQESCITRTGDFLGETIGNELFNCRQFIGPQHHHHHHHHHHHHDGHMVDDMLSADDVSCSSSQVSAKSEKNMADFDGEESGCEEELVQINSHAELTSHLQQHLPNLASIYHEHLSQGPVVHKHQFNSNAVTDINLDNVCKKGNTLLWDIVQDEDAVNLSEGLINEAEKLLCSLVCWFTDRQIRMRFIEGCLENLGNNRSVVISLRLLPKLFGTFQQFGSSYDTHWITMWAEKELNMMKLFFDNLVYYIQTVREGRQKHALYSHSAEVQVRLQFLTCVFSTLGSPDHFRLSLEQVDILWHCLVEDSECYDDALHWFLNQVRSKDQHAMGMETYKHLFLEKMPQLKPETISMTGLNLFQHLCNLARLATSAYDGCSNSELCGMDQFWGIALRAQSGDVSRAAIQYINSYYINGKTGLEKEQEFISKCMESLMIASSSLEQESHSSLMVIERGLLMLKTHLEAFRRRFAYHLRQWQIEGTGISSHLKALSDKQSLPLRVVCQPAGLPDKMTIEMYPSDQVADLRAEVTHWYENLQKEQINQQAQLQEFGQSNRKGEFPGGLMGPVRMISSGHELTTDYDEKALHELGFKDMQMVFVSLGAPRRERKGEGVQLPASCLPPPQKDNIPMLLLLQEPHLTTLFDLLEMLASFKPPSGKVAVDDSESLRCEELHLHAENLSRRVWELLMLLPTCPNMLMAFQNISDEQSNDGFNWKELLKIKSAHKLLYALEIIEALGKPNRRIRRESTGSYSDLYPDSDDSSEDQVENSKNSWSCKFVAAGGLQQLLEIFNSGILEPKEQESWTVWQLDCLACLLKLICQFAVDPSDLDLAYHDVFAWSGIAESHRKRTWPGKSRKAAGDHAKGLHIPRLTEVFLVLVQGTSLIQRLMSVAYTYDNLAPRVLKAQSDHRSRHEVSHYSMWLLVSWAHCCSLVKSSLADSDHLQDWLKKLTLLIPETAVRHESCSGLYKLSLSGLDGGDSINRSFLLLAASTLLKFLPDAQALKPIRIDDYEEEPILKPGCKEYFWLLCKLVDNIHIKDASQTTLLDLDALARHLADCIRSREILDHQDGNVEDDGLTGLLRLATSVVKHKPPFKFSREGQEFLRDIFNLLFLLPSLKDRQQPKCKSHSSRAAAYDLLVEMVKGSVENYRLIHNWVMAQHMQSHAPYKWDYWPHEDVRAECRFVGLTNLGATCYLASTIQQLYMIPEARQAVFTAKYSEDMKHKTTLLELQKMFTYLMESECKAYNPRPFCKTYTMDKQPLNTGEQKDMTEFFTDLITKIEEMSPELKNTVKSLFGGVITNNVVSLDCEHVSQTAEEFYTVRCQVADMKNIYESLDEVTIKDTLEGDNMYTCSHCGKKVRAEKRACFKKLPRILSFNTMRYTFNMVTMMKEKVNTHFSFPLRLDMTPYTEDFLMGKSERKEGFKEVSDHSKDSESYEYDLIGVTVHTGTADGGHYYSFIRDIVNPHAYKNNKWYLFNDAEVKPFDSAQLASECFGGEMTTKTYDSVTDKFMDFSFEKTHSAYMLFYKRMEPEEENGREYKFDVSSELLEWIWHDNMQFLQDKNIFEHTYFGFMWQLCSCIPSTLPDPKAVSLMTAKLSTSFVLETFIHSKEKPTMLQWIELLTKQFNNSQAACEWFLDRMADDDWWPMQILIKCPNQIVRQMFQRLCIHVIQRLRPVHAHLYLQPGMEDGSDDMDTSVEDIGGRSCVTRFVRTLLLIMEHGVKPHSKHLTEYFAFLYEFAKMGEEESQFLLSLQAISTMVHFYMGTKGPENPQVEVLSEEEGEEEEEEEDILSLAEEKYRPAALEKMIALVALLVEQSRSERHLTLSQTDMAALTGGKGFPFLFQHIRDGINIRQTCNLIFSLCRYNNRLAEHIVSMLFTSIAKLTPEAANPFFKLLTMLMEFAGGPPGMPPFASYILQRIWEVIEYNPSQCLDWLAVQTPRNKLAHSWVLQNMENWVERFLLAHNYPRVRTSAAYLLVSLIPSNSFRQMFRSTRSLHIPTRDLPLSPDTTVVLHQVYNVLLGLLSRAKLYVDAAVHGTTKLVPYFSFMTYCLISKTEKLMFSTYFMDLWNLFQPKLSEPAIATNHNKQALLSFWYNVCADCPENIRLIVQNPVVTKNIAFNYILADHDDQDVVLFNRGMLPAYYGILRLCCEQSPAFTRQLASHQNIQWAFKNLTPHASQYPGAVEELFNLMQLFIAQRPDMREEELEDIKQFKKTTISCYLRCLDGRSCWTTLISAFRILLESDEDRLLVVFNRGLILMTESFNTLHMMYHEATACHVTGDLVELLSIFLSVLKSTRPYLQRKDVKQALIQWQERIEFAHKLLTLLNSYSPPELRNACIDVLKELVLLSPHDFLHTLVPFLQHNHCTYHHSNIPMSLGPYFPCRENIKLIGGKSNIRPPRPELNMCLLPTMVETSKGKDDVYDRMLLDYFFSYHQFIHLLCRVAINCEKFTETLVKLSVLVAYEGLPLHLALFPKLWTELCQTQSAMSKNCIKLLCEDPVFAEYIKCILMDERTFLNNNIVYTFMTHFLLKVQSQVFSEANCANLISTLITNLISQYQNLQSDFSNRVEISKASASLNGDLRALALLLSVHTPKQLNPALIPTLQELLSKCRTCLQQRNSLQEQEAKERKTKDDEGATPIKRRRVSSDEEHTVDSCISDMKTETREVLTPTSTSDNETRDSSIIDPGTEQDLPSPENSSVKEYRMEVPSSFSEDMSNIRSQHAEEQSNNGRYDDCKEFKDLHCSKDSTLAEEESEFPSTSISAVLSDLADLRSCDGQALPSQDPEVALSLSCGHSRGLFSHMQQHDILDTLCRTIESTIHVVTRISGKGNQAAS
UniProt O95183: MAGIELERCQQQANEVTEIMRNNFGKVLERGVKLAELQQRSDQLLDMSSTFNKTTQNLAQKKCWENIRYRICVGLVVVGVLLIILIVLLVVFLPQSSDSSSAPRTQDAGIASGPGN
UniProt Q9NPD8: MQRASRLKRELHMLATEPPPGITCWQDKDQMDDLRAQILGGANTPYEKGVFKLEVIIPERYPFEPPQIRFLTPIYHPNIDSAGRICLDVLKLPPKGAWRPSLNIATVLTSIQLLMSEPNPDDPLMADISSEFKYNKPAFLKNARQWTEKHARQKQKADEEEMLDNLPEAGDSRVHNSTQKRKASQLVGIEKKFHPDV
UniProt Q9UDW1: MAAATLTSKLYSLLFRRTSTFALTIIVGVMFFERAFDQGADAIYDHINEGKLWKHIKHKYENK
UniProt P61088: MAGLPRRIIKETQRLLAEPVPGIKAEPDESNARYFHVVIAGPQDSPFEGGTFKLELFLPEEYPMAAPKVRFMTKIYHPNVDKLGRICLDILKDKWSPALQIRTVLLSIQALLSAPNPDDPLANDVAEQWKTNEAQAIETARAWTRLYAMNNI
UniProt Q96CW5, whole entry: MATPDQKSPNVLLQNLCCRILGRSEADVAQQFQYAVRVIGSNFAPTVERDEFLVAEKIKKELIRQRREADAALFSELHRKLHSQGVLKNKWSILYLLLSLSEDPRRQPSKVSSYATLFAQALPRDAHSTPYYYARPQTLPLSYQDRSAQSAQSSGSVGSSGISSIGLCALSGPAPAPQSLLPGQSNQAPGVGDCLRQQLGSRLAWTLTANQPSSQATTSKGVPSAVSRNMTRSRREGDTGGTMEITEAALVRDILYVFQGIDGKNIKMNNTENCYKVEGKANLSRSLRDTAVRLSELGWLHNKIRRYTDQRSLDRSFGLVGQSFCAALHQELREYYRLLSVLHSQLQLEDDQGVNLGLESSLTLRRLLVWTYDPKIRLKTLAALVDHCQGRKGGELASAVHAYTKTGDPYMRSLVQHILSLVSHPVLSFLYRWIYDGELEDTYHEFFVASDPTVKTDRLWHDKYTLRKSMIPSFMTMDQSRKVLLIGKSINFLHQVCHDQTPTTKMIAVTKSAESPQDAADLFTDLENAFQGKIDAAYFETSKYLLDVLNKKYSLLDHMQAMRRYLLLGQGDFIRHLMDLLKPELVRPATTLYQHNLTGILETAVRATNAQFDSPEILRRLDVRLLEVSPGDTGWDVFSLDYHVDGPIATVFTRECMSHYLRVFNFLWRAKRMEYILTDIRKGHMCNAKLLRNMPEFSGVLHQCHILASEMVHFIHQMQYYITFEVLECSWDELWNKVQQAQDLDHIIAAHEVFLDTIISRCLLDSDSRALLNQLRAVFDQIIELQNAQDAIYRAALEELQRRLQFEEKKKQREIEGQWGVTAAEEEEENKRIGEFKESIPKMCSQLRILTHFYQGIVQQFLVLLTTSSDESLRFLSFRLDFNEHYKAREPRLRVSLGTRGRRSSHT
UniProt Q5TAP6: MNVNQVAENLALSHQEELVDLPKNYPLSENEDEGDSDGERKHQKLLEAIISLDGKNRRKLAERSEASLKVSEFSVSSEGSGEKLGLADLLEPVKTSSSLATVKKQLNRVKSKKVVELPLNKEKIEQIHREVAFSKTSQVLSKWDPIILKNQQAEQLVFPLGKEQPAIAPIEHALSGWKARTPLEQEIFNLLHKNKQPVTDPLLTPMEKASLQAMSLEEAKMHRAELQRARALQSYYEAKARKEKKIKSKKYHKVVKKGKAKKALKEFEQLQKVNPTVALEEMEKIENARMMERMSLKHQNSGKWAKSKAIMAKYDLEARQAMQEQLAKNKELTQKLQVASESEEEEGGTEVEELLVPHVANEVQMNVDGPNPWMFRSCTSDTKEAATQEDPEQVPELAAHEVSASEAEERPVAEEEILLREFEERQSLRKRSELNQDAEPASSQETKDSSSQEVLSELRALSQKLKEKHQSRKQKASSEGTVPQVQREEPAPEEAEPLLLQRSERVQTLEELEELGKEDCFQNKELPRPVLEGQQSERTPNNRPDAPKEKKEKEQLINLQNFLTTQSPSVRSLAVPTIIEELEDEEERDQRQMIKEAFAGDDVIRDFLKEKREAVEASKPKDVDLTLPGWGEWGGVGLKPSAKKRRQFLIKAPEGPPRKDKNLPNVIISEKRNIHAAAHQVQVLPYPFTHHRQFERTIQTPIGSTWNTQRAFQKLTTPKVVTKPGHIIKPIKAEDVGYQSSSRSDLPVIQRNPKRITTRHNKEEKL

Each target was assayed with COc1ccc(Cn2ccc3cc(C)c(C(=O)NO)cc32)cc1 (assay: dose-dependent thermal stabilisation call (2D-TPP, DLPTP, 10% FDR) (binary (1 = stabilised)); higher = stabilised by the compound). Conditions: system: HL-60 intact cells; concentration range 0.04-10 µM.
Description: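 2D thermal proteome profiling in intact HL-60 cells treated with BRD-3811 (0, 0.04, 0.29, 2, 10 uM) for 90 min at 37 C, then heated 3 min at one of 12 temperatures (42-63.9 C). Soluble protein was quantified by TMT10 MS. The value is the DLPTP call of the paper: dose-dependent thermal stabilisation over all temperatures at 10% FDR (F-test of a dose-response against a flat model); one experiment, one call per tested protein.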
UBE2H (UniProt P62256) was tested, and the “dose-dependent thermal stabilisation call” value was inactive: 0. For URB2 (UniProt Q14146), the “dose-dependent thermal stabilisation call” value was inactive: 0. In the case of USP10 (UniProt Q14694), the “dose-dependent thermal stabilisation call” value is reported as inactive: 0. TTC26 was tested, and the “dose-dependent thermal stabilisation call” value was inactive: 0. In the case of VPS13A (UniProt Q96RL7), the “dose-dependent thermal stabilisation call” value is reported as inactive: 0. With UBA5 (UniProt Q9GZZ9) the “dose-dependent thermal stabilisation call” value was inactive: 0. TTLL12 (UniProt Q14166) was tested, and the “dose-dependent thermal stabilisation call” value was inactive: 0. In the case of USP34 (UniProt Q70CQ2), the “dose-dependent thermal stabilisation call” value is reported as inactive: 0. For USP1 (UniProt O94782), the “dose-dependent thermal stabilisation call” value was inactive: 0. For VAT1 (UniProt Q99536), the “dose-dependent thermal stabilisation call” value was inactive: 0. With UTP18 (UniProt Q9Y5J1) the “dose-dependent thermal stabilisation call” value was inactive: 0. In the case of VAMP5 (UniProt O95183), the “dose-dependent thermal stabilisation call” value is reported as inactive: 0. With UBE2T (UniProt Q9NPD8) the “dose-dependent thermal stabilisation call” value was inactive: 0. UCK1 (UniProt Q9HA47) was tested, and the “dose-dependent thermal stabilisation call” value was inactive: 0. For UBR4 (UniProt Q5T4S7), the “dose-dependent thermal stabilisation call” value was inactive: 0. VCPIP1 (UniProt Q96JH7) was tested, and the “dose-dependent thermal stabilisation call” value was inactive: 0. For UBXN10 (UniProt Q96LJ8), the “dose-dependent thermal stabilisation call” value was inactive: 0. With VPS36 (UniProt Q86VN1) the “dose-dependent thermal stabilisation call” value was inactive: 0. With TXNRD3 (UniProt Q86VQ6) the “dose-dependent thermal stabilisation call” value was inactive: 0. With TXNDC16 (UniProt Q9P2K2) the “dose-dependent thermal stabilisation call” value was inactive: 0. USP38 (UniProt Q8NB14) was tested, and the “dose-dependent thermal stabilisation call” value was inactive: 0. In the case of TYW1 (UniProt Q9NV66), the “dose-dependent thermal stabilisation call” value is reported as inactive: 0. With UCRC (UniProt Q9UDW1) the “dose-dependent thermal stabilisation call” value was inactive: 0. VPS33A (UniProt Q96AX1) was tested, and the “dose-dependent thermal stabilisation call” value was inactive: 0. With UBE2N (UniProt P61088) the “dose-dependent thermal stabilisation call” value was inactive: 0. For VPS29 (UniProt Q9UBQ0), the “dose-dependent thermal stabilisation call” value was inactive: 0. For UPF3A (UniProt Q9H1J1), the “dose-dependent thermal stabilisation call” value was inactive: 0. USP47 (UniProt Q96K76) was tested, and the “dose-dependent thermal stabilisation call” value was inactive: 0. In the case of USP20 (UniProt Q9Y2K6), the “dose-dependent thermal stabilisation call” value is reported as inactive: 0. For UCKL1 (UniProt Q9NWZ5), the “dose-dependent thermal stabilisation call” value was inactive: 0. For TUBGCP3 (UniProt Q96CW5), the “dose-dependent thermal stabilisation call” value was inactive: 0. In the case of UTP14C (UniProt Q5TAP6), the “dose-dependent thermal stabilisation call” value is reported as inactive: 0. For UBA1 (UniProt P22314), the “dose-dependent thermal stabilisation call” value was inactive: 0. For USP25 (UniProt Q9UHP3), the “dose-dependent thermal stabilisation call” value was inactive: 0. With VISA (UniProt Q7Z434) the “dose-dependent thermal stabilisation call” value was inactive: 0.
